Assay results reported in PMC4518479, “Rad51 Paralogs Remodel Pre-synaptic Rad51 Filaments to Stimulate Homologous Recombination” (Cell, 2015).
Construct, isoform or probe ends are uncertain for at least one entry. At least one verdict was read from the data and is not stated in words by the source. Protein sequences can lack the tags named with them.

What was measured:
[1] = target: T1, RAD-51 (Caenorhabditis elegans) (UniProt Q7K7I8); experiment: EMSA; conditions: ATP; EMSA: 20 mM triethanolamine-HCl pH 7.5, 8% glycerol, 1 mM DTT, 50 mM sodium acetate, 2 mM MgCl2 + 2 mM nucleotide (or 10 mM EDTA), 100 nM (nt) DNA, 25 °C; recombinant protein; residues 1-357; label: 5'-32P or 5'-fluorescein; single-stranded DNA
T1 sequence (looked up): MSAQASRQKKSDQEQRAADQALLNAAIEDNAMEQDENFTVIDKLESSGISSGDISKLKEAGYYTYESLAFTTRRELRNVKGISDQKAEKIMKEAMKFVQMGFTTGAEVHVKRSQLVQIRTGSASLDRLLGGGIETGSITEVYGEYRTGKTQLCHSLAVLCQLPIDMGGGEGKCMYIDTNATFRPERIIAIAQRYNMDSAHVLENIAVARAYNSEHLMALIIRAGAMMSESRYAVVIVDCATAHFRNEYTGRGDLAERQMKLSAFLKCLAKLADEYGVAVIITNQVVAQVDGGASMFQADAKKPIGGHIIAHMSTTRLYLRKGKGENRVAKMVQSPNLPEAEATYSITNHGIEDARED

[2] = target: T1, RAD-51 (Caenorhabditis elegans); experiment: DNaseI protection; conditions: recombinant protein; residues 1-357; label: 5'-fluorescein; single-stranded DNA

| Sequence | binding result [1] | binding result [2] |
| --- | --- | --- |
| ACGCTGCCGAATTCTACCAGTGCCTTGCTAGGACATCTTTGCCCACCTGCAGGTTCACCC [60-mer ssDNA] | binds | – |
| AGCTACCATGCCTGCACGAATTAAGCAATTCGTAATCATGGGTCAAAATCAATCTAAAGTATATATGAGTAAACTTGGTCTGACAGTTACCAATGCTTAATCAGTGAGGCACCTATCTCAGCGATCTGTCTATTT [135-mer ssDNA] | – | binds |
